This is an account of results in US20060276440A1, “Treatment of inflammatory disorders” (priority 2005, published 2006).

Structures are written as SMILES. pIC50: −log10 of the molar value.

For one test, the system named is OSM signaling. Nature of the test: […] 4A1 cell line (A549) OSM-stimulated luciferase reporter assay. The test is classed as cell-based. As to conditions: Homo sapiens, 4A1 cells, mean (Examples 7, 10). On the procedure:
Cell line 4A1 was established in A549 cells (a human lung cancer cell line) using BV32, a vector that carries both the luciferase and GFP reporters. Assay development was performed to optimize the conditions of the OSM-response in the 4A1 […]® line.
Reporter activities of Sentinel® clones were measured using the Steady-Glo® Luciferase assay system (Promega, Madison, Wis.), according to the manufacturer's instructions, and were normalized to cell numbers based on nucleic acid quantification (CyQuant® cell proliferations assay, Molecular Probes/Invitrogen, Carlsbad, Calif.). In order to identify potential anti-inflammatory compounds, the OSM-responding Sentinel® clone 4A1 was used for a library screen of approximately 1800 compounds.
For orientation: In a reporter assay the amount or activity of a reporter protein is the signal.

The test system of a further test is MMP-13. The experiment in a line: IL-1/OSM-stimulated pro-MMP-13 production in SW-1353 cells (ELISA). The test is classed as cell-based. As to conditions: Homo sapiens; SW1353 cells; mean (Examples 8, 10); read-out: IC50 values by pro-MMP-13 (OSM/IL-1-mediated production). The text has this: To test the compounds identified in the preliminary reporter (luciferase) activity […]® line 4A1 screen for inhibition of OSM signaling in a more physiologically relevant environment, a human cell line involved in an inflammatory disease was adapted. The human cartilage cell line SW-1353 was selected.
In the human cartilage cell line SW-1353, while IL-1 is believed to activate expression of collagenases to a small degree and OSM is believed to have no effect on collagenase expression, a combination of IL-1 and OSM is believed to lead to a synergistic activation of collagenases to much higher levels (S. Cowell et al., Biochem J 331 (Pt 2), 453 (Apr. 15, 1998). Regulation of MMP-13 in SW-1353 cells is, therefore, believed to provide a biomarker which can be used to monitor IL-1/OSM-mediated signal transduction events in secondary assays. […]
For matrix metalloproteinase (MMP) measures, SW1353 cells were grown to confluence in 24 well plates, washed in DMEM (with Ham's F12) and placed in 500 ul of serum free DMEM/F-12 with 0.2% lactalbumin hydrosylate with and without OsM/IL-1. After 24 hrs, supernatants were collected and the amounts of proMMP13, totalMMP2, and proMMP1 were measured using Quantikine® ELISA kit for human MMPs (R & D systems, Minneapolis, Minn.). […]
(In general: ELISA stands for enzyme-linked immunosorbent assay.)

As to `COc1cc2c(c(OC)c1OC)-c1ccc(OC)c(=O)cc1[C@@H](NC(C)=O)CC2` (atropisomer, axis not shown) [Colchicine (4), colchicine], the pIC50 is 6.58 in the test with OSM signaling and 6.53 in the test with MMP-13.
